{"source": "PubChem BioAssay AID2685", "about": "(National Center for Advancing Translational Sciences (NCATS), 2010)", "assay": "qHTS Assay for Lipid Storage Modulators in Drosophila S3 Cells;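 on cell number change: cells counted by Cell Tracker Red CMTPX staining in the red channel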", "conditions": "BODIPY lipid droplet fluorescence, 18-24 h; for cell number change: measured here: cell count max response, cells fed with added oleic acid", "method_in_brief": "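Drosophila S3 cells got compounds at several concentrations plus oleic acid (400 uM solution). Laser-scanning cytometry with 488 nm excitation read lipid droplets at 500-530 nm and cells at 575-640 nm. Percent activity was relative to 20 uM Triacsin C.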", "key": {"[1]": {"conditions": "measured here: lipid fluorescence (Fed channel) AC50, cells fed with added oleic acid"}, "[2]": {"conditions": "measured here: cell number channel AC50, cells fed with added oleic acid"}}, "note": "This is one part of the list. The main result of the screen is listed elsewhere. These columns were measured beside it and carry no call. Compounds called inactive in the main read-out are mostly missing here. Words in brackets tell the shape of the fitted curve; partial curves, single points and poor fits give uncertain potencies.", "data": [{"smiles": "C[C@@H](NC(=O)c1nc[nH]c1C(=O)N1CCc2ccccc2C1)c1ccccc1", "values": [{"measurement": "cell number change", "result": 3.56, "unit": "%"}, {"measurement": "AC50", "setting": "[1]", "result": "0.651 µM [rising, partial curve, poor fit]"}]}, {"smiles": "O=C(COc1ccc2ccccc2c1)N1CCNCC1", "values": [{"measurement": "cell number change", "result": -17.9, "unit": "%"}, {"measurement": "AC50", "setting": "[1]", "result": "3.66 µM [rising, partial curve, poor fit]"}]}, {"smiles": "O=CN1CCN(C(=O)c2cccc([N+](=O)[O-])c2)CC1", "values": [{"measurement": "cell number change", "result": 28.5, "unit": "%"}, {"measurement": "AC50", "setting": "[1]", "result": "29.1 µM [rising, single point]"}]}, {"smiles": "CCc1ccc(OCC(=O)NC2CC(C)(C)NC(C)(C)C2)cc1", "values": [{"measurement": "cell number change", "result": 61.1, "unit": "%"}, {"measurement": "AC50", "setting": "[2]", "result": "29.1 µM [rising, single point]"}, {"measurement": "AC50", "setting": "[1]", "result": "18.4 µM [falling, single point]"}]}, {"smiles": "CCn1cc(/C=N/NC(=O)c2ccc3c(c2)OCO3)c(C)n1", "values": [{"measurement": "cell number change", "result": 41.8, "unit": "%"}, {"measurement": "AC50", "setting": "[2]", "result": "11.6 µM [rising, partial curve]"}, {"measurement": "AC50", "setting": "[1]", "result": "0.651 µM [falling, single point]"}]}, {"smiles": "COC(=O)c1sccc1NC(=O)c1ccncc1", "values": [{"measurement": "cell number change", "result": -18, "unit": "%"}, {"measurement": "AC50", "setting": "[1]", "result": "18.4 µM [rising, partial curve, poor fit]"}]}, {"smiles": "COc1ccc(N=C2SC(C(=O)Nc3ccc4c(c3)OCO4)CC(=O)N2C)cc1", "note": "(centres undefined)", "values": [{"measurement": "cell number change", "result": 34.8, "unit": "%"}, {"measurement": "AC50", "setting": "[2]", "result": "9.2 µM [rising, partial curve]"}, {"measurement": "AC50", "setting": "[1]", "result": "0.461 µM [rising, full curve]"}]}, {"smiles": "C(/C=C/c1ccco1)=N/N1CCN(c2ccccc2)CC1", "values": [{"measurement": "cell number change", "result": 49.5, "unit": "%"}, {"measurement": "AC50", "setting": "[2]", "result": "2.91 µM [rising, full curve]"}, {"measurement": "AC50", "setting": "[1]", "result": "6.51 µM [rising, single point]"}]}, {"smiles": "Nn1cnnc1SCC(=O)Nc1ccc(C2CCCCC2)cc1", "values": [{"measurement": "cell number change", "result": 21.8, "unit": "%"}, {"measurement": "AC50", "setting": "[2]", "result": "2.06 µM [rising, partial curve]"}]}, {"smiles": "O=C(CN1C(=O)C2CC=CCC2C1=O)Nc1ccc(S(=O)(=O)Nc2ncccn2)cc1", "note": "(centres undefined)", "values": [{"measurement": "cell number change", "result": 13.5, "unit": "%"}, {"measurement": "AC50", "setting": "[1]", "result": "13 µM [rising, single point]"}]}, {"smiles": "O=C(NCc1cccnc1)C1CC(c2ccccc2Cl)=NO1", "note": "(centres undefined)", "values": [{"measurement": "cell number change", "result": 29.1, "unit": "%"}, {"measurement": "AC50", "setting": "[1]", "result": "6.51 µM [falling, single point]"}]}, {"smiles": "COC(=O)c1cn(NC(=O)Cn2nc([N+](=O)[O-])c(Br)c2C)c(=O)c2ccccc12", "values": [{"measurement": "cell number change", "result": -3.55, "unit": "%"}]}, {"smiles": "CCn1c(SCC(=O)Nc2sc3c(c2C#N)CCCC3)nnc1-c1ccco1", "values": [{"measurement": "cell number change", "result": -80.4, "unit": "%"}, {"measurement": "AC50", "setting": "[2]", "result": "29.1 µM [falling, single point]"}]}, {"smiles": "O=c1c(Cl)c(NCCO)cnn1-c1cccc(Cl)c1", "values": [{"measurement": "AC50", "setting": "[1]", "result": "4.11 µM [falling, full curve]"}]}, {"smiles": "COc1ccc(-n2c3nc4ccccc4nc3c3c(=N)oc(C)nc32)cc1", "values": [{"measurement": "cell number change", "result": 140, "unit": "%"}, {"measurement": "AC50", "setting": "[2]", "result": "0.651 µM [rising, single point]"}, {"measurement": "AC50", "setting": "[1]", "result": "5.8 µM [rising, single point]"}]}, {"smiles": "Cc1cccc(NC(=O)CNC(=O)c2ccco2)n1", "values": [{"measurement": "cell number change", "result": -2.69, "unit": "%"}]}]}
